# Some of the results follow.
# Legend:
# Assay in all cases: glycan array binding signal (z-score within array); higher = stronger binding
# Settings in all cases: glycan notation: IUPAC condensed, linker removed
# [1] = target: Gal(b1-4)GlcNAc(b1-2)Man(a1-6)[GlcNAc(b1-2)Man(a1-3)]Man(b1-4)GlcNAc(b1-4)GlcNAc
# Outline: (§1)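 Arrays were curated from the Consortium for Functional Glycomics database, 3228 in total, and kept only where the protein sequence was available. Binding is expressed as a within-array Z-score. This score was averaged across arrays of the same protein sequence at different concentrations or buffers and across linkers, and negative values can be read as non-binding.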
# [2] = target: Gal(b1-4)GlcNAc(b1-2)Man(a1-6)[Man(a1-3)]Man(b1-4)GlcNAc(b1-4)GlcNAc
# Outline: as §1
# [3] = target: Gal(b1-4)GlcNAc(b1-2)[Gal(b1-4)GlcNAc(b1-4)]Man(a1-3)[Gal(b1-4)GlcNAc(b1-2)Man(a1-6)]Man(b1-4)GlcNAc(b1-4)GlcNAc
# Outline: as §1
# [4] = target: Gal(b1-4)GlcNAc(b1-2)[Gal(b1-4)GlcNAc(b1-4)]Man(a1-3)[Gal(b1-4)GlcNAc(b1-2)[Gal(b1-4)GlcNAc(b1-6)]Man(a1-6)]Man(b1-4)GlcNAc(b1-4)GlcNAc
# Outline: as §1
# [5] = target: Gal(b1-4)GlcNAc(b1-2)[Gal(b1-4)GlcNAc(b1-4)]Man(a1-3)[GlcNAc(b1-4)][Gal(b1-4)GlcNAc(b1-2)Man(a1-6)]Man(b1-4)GlcNAc(b1-4)GlcNAc
# Outline: as §1
# [6] = target: Gal(b1-4)GlcNAc(b1-2)[Gal(b1-4)GlcNAc(b1-4)]Man(a1-3)[GlcNAc(b1-4)][Gal(b1-4)GlcNAc(b1-2)[Gal(b1-4)GlcNAc(b1-6)]Man(a1-6)]Man(b1-4)GlcNAc(b1-4)GlcNAc
# Outline: as §1
# [7] = target: Gal(b1-4)GlcNAc(b1-2)[Gal(b1-4)GlcNAc(b1-6)]Man(a1-6)[Gal(b1-4)GlcNAc(b1-2)Man(a1-3)]Man(b1-4)GlcNAc(b1-4)GlcNAc
# Outline: as §1
# [8] = target: Gal(b1-4)GlcNAc(b1-2)[Gal(b1-4)GlcNAc(b1-6)]Man(a1-6)[Gal(b1-4)GlcNAc(b1-2)Man(a1-3)]Man(b1-4)GlcNAc(b1-4)[Fuc(a1-6)]GlcNAc
# Outline: as §1
# [9] = target: Gal(b1-4)GlcNAc(b1-2)[Gal(b1-4)GlcNAc(b1-6)]Man(a1-6)[GlcNAc(b1-4)][Gal(b1-4)GlcNAc(b1-2)Man(a1-3)]Man(b1-4)GlcNAc(b1-4)GlcNAc
# Outline: as §1
# [10] = target: Gal(b1-4)GlcNAc(b1-2)[Gal(b1-4)GlcNAc(b1-6)]Man(a1-6)[GlcNAc(b1-4)][Gal(b1-4)GlcNAc(b1-2)[Gal(b1-4)GlcNAc(b1-4)]Man(a1-3)]Man(b1-4)GlcNAc(b1-4)[Fuc(a1-6)]GlcNAc
# Outline: as §1
# [11] = target: Gal(b1-4)GlcNAc(b1-3)Gal(b1-3)GalNAc
# Outline: as §1
# [12] = target: Gal(b1-4)GlcNAc(b1-3)Gal(b1-3)GlcNAc
# Outline: as §1
# [13] = target: Gal(b1-4)GlcNAc(b1-3)Gal(b1-4)Glc
# Outline: as §1
# [14] = target: Gal(b1-4)GlcNAc(b1-3)Gal(b1-4)GlcNAc
# Outline: as §1
# [15] = target: Gal(b1-4)GlcNAc(b1-3)Gal(b1-4)GlcNAc(b1-2)Man(a1-3)[Gal(b1-4)GlcNAc(b1-3)Gal(b1-4)GlcNAc(b1-2)Man(a1-6)]Man(b1-4)GlcNAc(b1-4)GlcNAc
# Outline: as §1
# [16] = target: Gal(b1-4)GlcNAc(b1-3)Gal(b1-4)GlcNAc(b1-2)Man(a1-3)[Gal(b1-4)GlcNAc(b1-3)Gal(b1-4)GlcNAc(b1-2)Man(a1-6)]Man(b1-4)GlcNAc(b1-4)[Fuc(a1-6)]GlcNAc
# Outline: as §1
# [17] = target: Gal(b1-4)GlcNAc(b1-3)Gal(b1-4)GlcNAc(b1-2)[Gal(b1-4)GlcNAc(b1-3)Gal(b1-4)GlcNAc(b1-6)]Man(a1-6)[Gal(b1-4)GlcNAc(b1-3)Gal(b1-4)GlcNAc(b1-2)Man(a1-3)]Man(b1-4)GlcNAc(b1-4)GlcNAc
# Outline: as §1
# [18] = target: Gal(b1-4)GlcNAc(b1-3)Gal(b1-4)GlcNAc(b1-2)[Gal(b1-4)GlcNAc(b1-3)Gal(b1-4)GlcNAc(b1-6)]Man(a1-6)[Gal(b1-4)GlcNAc(b1-3)Gal(b1-4)GlcNAc(b1-2)Man(a1-3)]Man(b1-4)GlcNAc(b1-4)[Fuc(a1-6)]GlcNAc
# Outline: as §1
# [19] = target: Gal(b1-4)GlcNAc(b1-3)Gal(b1-4)GlcNAc(b1-3)Gal(b1-4)GlcNAc
# Outline: as §1
# [20] = target: Gal(b1-4)GlcNAc(b1-3)Gal(b1-4)GlcNAc(b1-3)Gal(b1-4)GlcNAc(b1-2)Man(a1-3)[Gal(b1-4)GlcNAc(b1-3)Gal(b1-4)GlcNAc(b1-3)Gal(b1-4)GlcNAc(b1-2)Man(a1-6)]Man(b1-4)GlcNAc(b1-4)GlcNAc
# Outline: as §1
# [21] = target: Gal(b1-4)GlcNAc(b1-3)Gal(b1-4)GlcNAc(b1-3)Gal(b1-4)GlcNAc(b1-2)Man(a1-3)[Gal(b1-4)GlcNAc(b1-3)Gal(b1-4)GlcNAc(b1-3)Gal(b1-4)GlcNAc(b1-2)Man(a1-6)]Man(b1-4)GlcNAc(b1-4)[Fuc(a1-6)]GlcNAc
# Outline: as §1
# [22] = target: Gal(b1-4)GlcNAc(b1-3)Gal(b1-4)GlcNAc(b1-3)Gal(b1-4)GlcNAc(b1-2)[Gal(b1-4)GlcNAc(b1-3)Gal(b1-4)GlcNAc(b1-3)Gal(b1-4)GlcNAc(b1-6)]Man(a1-6)[Gal(b1-4)GlcNAc(b1-3)Gal(b1-4)GlcNAc(b1-3)Gal(b1-4)GlcNAc(b1-2)Man(a1-3)]Man(b1-4)GlcNAc(b1-4)[Fuc(a1-6)]GlcNAc
# Outline: as §1
binder,measurement,setting,value
MUB70 (Lactobacillus reuteri) (protein) CVHVQYIDGETDQMLRQDDLDGYTDETIPYSTAEGIKKFEGDGYELFKDNFPAGEKFDNDDTNDQFYTVIF,glycan array binding signal (z-score),[1],-0.484
same,glycan array binding signal (z-score),[2],0.734
same,glycan array binding signal (z-score),[3],0.112
same,glycan array binding signal (z-score),[4],0.058
same,glycan array binding signal (z-score),[5],-0.687
same,glycan array binding signal (z-score),[6],-0.567
same,glycan array binding signal (z-score),[7],-0.71
same,glycan array binding signal (z-score),[8],-0.356
same,glycan array binding signal (z-score),[9],-0.943
same,glycan array binding signal (z-score),[10],-0.625
same,glycan array binding signal (z-score),[11],-0.148
same,glycan array binding signal (z-score),[12],0.869
same,glycan array binding signal (z-score),[13],-0.185
same,glycan array binding signal (z-score),[14],-0.399
same,glycan array binding signal (z-score),[15],0.425
same,glycan array binding signal (z-score),[16],1.16
same,glycan array binding signal (z-score),[17],0.792
same,glycan array binding signal (z-score),[18],0.26
same,glycan array binding signal (z-score),[19],-0.641
same,glycan array binding signal (z-score),[20],0.398
same,glycan array binding signal (z-score),[21],0.333
same,glycan array binding signal (z-score),[22],0.348

# Part of the list above, as tab-separated lines.
binder	measurement	setting	value
MUB70 (Lactobacillus reuteri) (protein) CVHVQYIDGETDQMLRQDDLDGYTDETIPYSTAEGIKKFEGDGYELFKDNFPAGEKFDNDDTNDQFYTVIF	glycan array binding signal (z-score)	[18]	0.26
same	glycan array binding signal (z-score)	[22]	0.348

# Reference: the supplement of paper PMC8728848
